PubChem BioAssay AID1224830 – NIAID – 2016
Purpose: 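Regulators of TLR4 signalling towards TNF-alpha in macrophage-like cells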 (primary screen). Cell system: human THP-1 monocytic leukaemia cells, TNF dual-luciferase reporter clone, PMA-differentiated to macrophage-like cells. Reagents: siRNA pool against human genes, 50 nM. Time to read-out: LPS for 4 h, given about 3 days after siRNA transfection. Conditions: bacterial LPS (TLR4 ligand), 10 ng/ml. Measured: 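TNF firefly reporter luminescence divided by renilla, normalised to the plate median, then turned into a robust z-score for each replicate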. Scale: TNF reporter robust z-score: higher = stronger TNF reporter response to LPS. Hit rule: 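Each well counts as active if its z-score is over 2.8 or under -1.5; controls are left without a call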.
Here is one part, drawn at random, of about 18,000 reagents. In the full data, about 2,900 (16%) were called active. 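Calls are made per well; low scores hint the gene aids the LPS response, high scores that it dampens it.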 Entries without a mark were called inactive. Repeated entries: four replicate wells of each siRNA pool.

| Target gene | TNF reporter robust z-score |
| --- | --- |
| NQO2 | -0.42 |
| NQO2 | 0.11 |
| NQO2 | 0.3 |
| NQO2 | -1.7 (active) |
| SPAG8 | -0.5 |
| SPAG8 | -0.3 |
| SPAG8 | -0.48 |
| C1D | -0.36 |
| C1D | 0.43 |
| C1D | 0.24 |
| C1D | 0.14 |
| IL17A | -1.55 (active) |
| IL17A | -1.46 |
| IL17A | -0.14 |
| IL17A | -0.97 |
| ELOVL2 | 0.95 |
| ELOVL2 | 1.71 |
| ELOVL2 | 0.93 |
| ELOVL2 | 0.63 |
| MFGE8 | -0.29 |
| MFGE8 | -1.11 |
| MFGE8 | -1.32 |
| MFGE8 | -0.11 |
| DHRS11 | -0.76 |
| DHRS11 | 0.02 |
| DHRS11 | -0.56 |
| DHRS11 | 0.98 |
| CAMK2N2 | 0.39 |
| CAMK2N2 | 0.05 |
| CAMK2N2 | -0.25 |
| CAMK2N2 | 0.33 |
| CHMP4B | -0.58 |
| CHMP4B | 0.36 |
| CHMP4B | 0.57 |
| CHMP4B | 1.32 |
| PNOC | -0.68 |
| PNOC | -0.25 |
| PNOC | -1.14 |
| PNOC | -0.77 |
| SERPINE1 | -0.16 |
| SERPINE1 | 1.31 |
| SERPINE1 | 2.07 |
| SERPINE1 | -0.69 |
| DCUN1D3 | 0 |
| DCUN1D3 | 0.45 |
| DCUN1D3 | -0.27 |
| DCUN1D3 | 2.46 |
| POLRMT | 2.23 |
| POLRMT | -0.01 |
| POLRMT | -0.69 |
| POLRMT | -0.72 |
| NDUFC1 | 0.36 |
| NDUFC1 | -0.32 |
| NDUFC1 | 0.24 |
| NDUFC1 | 0.11 |

Next entries follow.
| Target gene | TNF reporter robust z-score |
| --- | --- |
| SOCS7 | -1.02 |
| SOCS7 | 3.38 (active) |
| SOCS7 | -1.81 (active) |
| SOCS7 | -0.71 |
| TNFSF13 | -0.02 |
| TNFSF13 | 0.62 |
| TNFSF13 | 1.25 |
| TNFSF13 | 0.66 |
| HTR3C | -0.49 |
| HTR3C | -0.66 |
| HTR3C | -0.27 |
| HTR3C | 0.04 |
| PRELP | -1.03 |
| PRELP | 0.55 |
| PRELP | -0.05 |
| PRELP | -0.21 |
| TRAPPC11 | -1.32 |
| TRAPPC11 | -0.92 |
| TRAPPC11 | -0.91 |
| TRAPPC11 | -0.83 |
| TYROBP | -0.26 |
| TYROBP | -0.2 |
| TYROBP | -1.32 |
| TYROBP | 1.18 |
| ZNF660 | -0.04 |
| ZNF660 | 0.17 |
| ZNF660 | -0.56 |
| ZNF660 | 1.69 |
| DSCAML1 | 0.47 |
| DSCAML1 | 1.28 |
| DSCAML1 | 0.25 |
| DSCAML1 | 0.22 |
| ZNF148 | -0.47 |
| ZNF148 | -0.18 |
| ZNF148 | -0.67 |
| ZNF148 | 0.29 |
| SPRN | -0.44 |
| SPRN | -0.05 |
| SPRN | -0.22 |
| SPRN | 0.57 |
| SEC61A1 | -1.59 (active) |
| SEC61A1 | -1.31 |
| SEC61A1 | -0.66 |
| SEC61A1 | -1.19 |
| RTP4 | -0.76 |
| RTP4 | -0.14 |
| RTP4 | 0.37 |
| RTP4 | 0.99 |
| FIBP | 0.62 |
| FIBP | 0.69 |
| FIBP | 0.59 |
| FIBP | 1.11 |
| CENPBD1P | -0.15 |
| CENPBD1P | -0.73 |
| CENPBD1P | 0.25 |
| CENPBD1P | -0.54 |
